Results: US20250283056A1, “MODIFIED O-[…] USEFUL FOR PRODUCTION OF O-METHYLATED PHENOLIC NATURAL PRODUCTS” (The University of Hong Kong, priority 2024, published 2025)
At least one compound was matched to its structure with a doubt left.

Columns and labels:
SsCOMT = test: Isothermal titration calorimetry (ITC), SsCOMT wild type; type: binding, Saccharum spontaneum; details: 25° C., SsCOMT WT, mean ± standard error from curve fitting
Description: Isothermal titration calorimetry (ITC) assays were conducted with MicroCal iTC200 (Malvern Panalytical, UK). […] Both cell sample and titrant were equilibrated to ITC buffer consisting of 100 mM HEPES pH 7.9 with 2.5% (v/v) PEG 400. For ITC assays involving pterostilbene, PEG 400 concentration was increased to 5% (v/v). Each run incorporated an initial delay of 60 s prior to the first injection (0.5 μl) and spaced 150 s between the subsequent 19 injections (2.0 μl) at 25° C. During the runs, the cell was continuously stirred at 750 rpm by flat paddle. Results were analysed based on the 2nd to 20th injections using the Origin (MicroCal Software, USA) and PEAQ-ITC software (Malvern Panalytical, UK).

[1] = tested on: Colletotrichum sublineola; test: In vitro fungitoxicity assay; type: cell-based; details: potato dextrose agar, stilbenes up to 50 μM, mycelial growth 72 h

COc1cc(/C=C/c2ccc(O)cc2)cc(OC)c1 [Pterostilbene, pterostilbene]
Kd (SsCOMT): 9.93 ± 4.04 µM | in vitro toxicity (potency as phytoalexin) towards C. sublineola [1]: superior potency
